In this data set the target is YFP-STAT3 127-688 (UniProt P40763). Description: PEMSA (EMSA with YFP-protein fluorescence). The note with it: 6 uM DNA, 0.8 uM protein, 24 hr, 4 C, PEMSA: buffer with 0.2 mg/ml BSA and 8% glycerol, 5% native gel, recombinant protein, residues 127-688, protein details: YFP fusion (N-terminal by name). For orientation: A gel shift assay detects complexes by their altered migration in electrophoresis.

By UniProt entry, the sequences of proteins in these tests, tags left out. Residues count along the entry.
UniProt P40763, 127-688: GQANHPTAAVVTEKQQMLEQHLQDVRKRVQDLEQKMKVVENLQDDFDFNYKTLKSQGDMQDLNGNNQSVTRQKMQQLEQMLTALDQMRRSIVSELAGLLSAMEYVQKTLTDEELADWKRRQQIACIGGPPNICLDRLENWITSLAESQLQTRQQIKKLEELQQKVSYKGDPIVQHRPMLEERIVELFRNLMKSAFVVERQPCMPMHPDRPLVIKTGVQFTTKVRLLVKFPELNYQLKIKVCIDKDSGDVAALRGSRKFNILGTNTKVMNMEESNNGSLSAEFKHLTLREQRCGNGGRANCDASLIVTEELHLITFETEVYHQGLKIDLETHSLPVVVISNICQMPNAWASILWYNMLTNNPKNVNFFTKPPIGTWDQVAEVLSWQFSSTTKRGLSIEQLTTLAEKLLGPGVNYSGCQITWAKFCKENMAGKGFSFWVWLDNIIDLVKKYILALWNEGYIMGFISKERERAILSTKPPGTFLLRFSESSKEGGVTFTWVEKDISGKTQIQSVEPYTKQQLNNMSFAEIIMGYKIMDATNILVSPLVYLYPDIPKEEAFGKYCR

The exact form of at least one protein or probe is not confirmed. At least one verdict was read from the data and is not stated in words by the source.

Consider “ATTTCCCGTAAA (double strand) [unlabelled consensus DNA 12-mer]”, for which the binding result is “binds”.

The record behind these values is PMC6135694.
